Values of other authors as cited in US7648957B2, “Nutritional and therapeutic composition of an insulin sensitizer and a peptide fraction” (DSM IP Assets B.V., priority 2002, dated 2010).
At least one compound was matched to its structure with a doubt left.

Conditions: effect comparable to metformin

Structure (SMILES): COc1cc(/C=C/c2ccc(O)cc2)cc(OC)c1 [Pterostilbene]
- reduction of blood sugar levels: up to 42%
